Results on one compound are retold here after PMC11264232, “Are the metal identity and stoichiometry of metal complexes important for colchicine site binding and inhibition of tubulin polymerization?” (Dalton Transactions (Cambridge, England : 2003), 2024).

For the data set, the system named is tubulin (colchicine site). As to the kind of experiment: Inhibition of [3H]colchicine binding to tubulin. From the text:
The methods used for determination of the IC50 values for tubulin assembly and inhibition of [^3H]colchicine binding were as described previously.[77]

Consider `Cc1cc(NC([S-])=NN=Cc2cccc(C[NH+]3CCOCC3)n2)cc(C)c1O.[Cl-].[Cl-].[Pd+2]` [Complex 8, [Pd^II(HL^1)Cl]Cl], for which, under “5 μM”, the “fold less potent than CA-4 in inhibiting [3H]colchicine binding” value turned out to be 7 fold. Also, the “factor of superiority over complex 4 in inhibiting [3H]colchicine binding” value (25 μM) is recorded as 5.
